Laboratory results: paper doi:10.1101/2023.08.07.552250
No constants are given. Whether binding was seen depends on the method and setting. Some binding calls cover weakened binding; strength is not graded here.

T1: serine/arginine-rich 45 (SR45), SR45.1 isoform (Arabidopsis thaliana) (UniProt Q9SEE9)
T1 sequence: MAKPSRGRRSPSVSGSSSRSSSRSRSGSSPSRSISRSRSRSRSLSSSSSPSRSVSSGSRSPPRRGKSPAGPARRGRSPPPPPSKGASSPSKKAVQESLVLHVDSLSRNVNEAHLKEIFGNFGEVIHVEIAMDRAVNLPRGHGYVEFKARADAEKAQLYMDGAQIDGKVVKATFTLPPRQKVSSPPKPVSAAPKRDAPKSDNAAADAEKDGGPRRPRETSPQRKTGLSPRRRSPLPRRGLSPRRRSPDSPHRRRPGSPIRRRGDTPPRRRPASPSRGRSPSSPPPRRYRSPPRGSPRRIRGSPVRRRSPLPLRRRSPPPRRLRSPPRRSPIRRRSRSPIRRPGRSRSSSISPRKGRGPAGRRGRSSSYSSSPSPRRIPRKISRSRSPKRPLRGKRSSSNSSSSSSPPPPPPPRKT

B1: RS31 (protein, UniProt P92964 1-264)
chain: MRPVFVGNFEYETRQSDLERLFDKYGRVDRVDMKSGYAFVYFEDERDAEDAIRKLDNFPFGYEKRRLSVEWAKGERGRPRGDAKAPSNLKPTKTLFVINFDPIRTKEHDIEKHFEPYGKVTNVRIRRNFSFVQFETQEDATKALEATQRSKILDRVVSVEYALKDDDERDDRNGGRSPRRSLSPVYRRRPSPDYGRRPSPGQGRRPSPDYGRARSPEYDRYKGPAAYERRRSPDYGRRSSDYGRQRSPGYDRYRSRSPVPRGRP
B2: SR34 (protein, UniProt O22315 1-303)
chain: MSSRSSRTVYVGNLPGDIREREVEDLFSKYGPVVQIDLKVPPRPPGYAFVEFDDARDAEDAIHGRDGYDFDGHRLRVELAHGGRRSSDDTRGSFNGGGRGGGRGRGDGGSRGPSRRSEFRVLVTGLPSSASWQDLKDHMRKGGDVCFSQVYRDARGTTGVVDYTCYEDMKYALKKLDDTEFRNAFSNGYVRVREYDSRKDSRSPSRGRSYSKSRSRSRGRSVSRSRSRSRSRSRSPKAKSSRRSPAKSTSRSPGPRSKSRSPSPRRSRSRSRSPLPSVQKEGSKSPSKPSPAKSPIHTRSPSR
B3: RS40 (protein, UniProt P92965 1-350)
chain: MKPVFCGNFEYDAREGDLERLFRKYGKVERVDMKAGFAFVYMEDERDAEDAIRALDRFEFGRKGRRLRVEWTKSERGGDKRSGGGSRRSSSSMRPSKTLFVINFDADNTRTRDLEKHFEPYGKIVNVRIRRNFAFIQYEAQEDATRALDASNNSKLMDKVISVEYAVKDDDARGNGHSPERRRDRSPERRRRSPSPYKRERGSPDYGRGASPVAAYRKERTSPDYGRRRSPSPYKKSRRGSPEYGRDRRGNDSPRRRERVASPTKYSRSPNNKRERMSPNHSPFKKESPRNGVGEVESPIERRERSRSSPENGQVESPGSIGRRDSDGGYDGAESPMQKSRSPRSPPADE
B4: SCL30a (protein, UniProt Q9LHP2 1-262)
chain: MRGRSYTPSPPRGYGRRGRSPSPRGRFGGSRDSDLPTSLLVRNLRHDCRQEDLRRPFEQFGPVKDIYLPRDYYTGDPRGFGFIQFMDPADAAEAKHQMDGYLLLGRELTVVFAEENRKKPTEMRTRDRGGRSNRFQDRRRSPPRYSRSPPPRRGRRSRSRSRGYNSPPAKRHQSRSVSPQDRRYEKERSYSRSPPHNGSRVRSGSPGRVKSHSRSPRRSVSPRKNRSYTPEQARSQSPVPRQSRSPTPVPRGAQNGDRSPSQ
B5: RS2Z33 (protein, UniProt Q8VYA5 1-290)
chain: MPRYDDRYGNTRLYVGRLSSRTRTRDLERLFSRYGRVRDVDMKRDYAFVEFGDPRDADDARHYLDGRDFDGSRITVEFSRGAPRGSRDFDSRGPPPGAGRCFNCGVDGHWARDCTAGDWKNKCYRCGERGHIERNCKNSPKKLRRSGSYSRSPVRSRSPRRRRSPSRSLSRSRSYSRSRSPVRRRERSVEERSRSPKRMDDSLSPRARDRSPVLDDEGSPKIIDGSPPPSPKLQKEVGSDRDGGSPQDNGRNSVVSPVVGAGGDSSKEDRSPVDDDYEPNRTSPRGSESP
B6: RSZ22a (protein, UniProt Q9SJA6 1-196)
chain: MSRVYVGNLDPRVTERELEDEFRSFGVIRSVWVARRPPGYAFLDFEDSRDARDAIREVDGKNGWRVEQSHNRGGGGGRGGGRGGGDGGRGRGGSDLKCYECGESGHFARECRSRGGSGGRRRSRSRSRSPPRYRKSPTYGGRRSYSPRARSPPPPRRRSPSPRGRNYSRSPPPYRARDEVPYANGNGLKDVRRSRS
B7: RSZ22 (protein, UniProt O81126 1-200)
chain: MSRVYVGNLDPRVTERELEDEFRAFGVVRSVWVARRPPGYAFLDFEDPRDARDAIRALDGKNGWRVEQSHNRGERGGGGRGGDRGGGGGGRGGRGGSDLKCYECGETGHFARECRNRGGTGRRRSKSRSRTPPRYRRSPSYGRRSYSPRARSPPPPRRRSPSPPPARGRSYSRSPPPYRAREEVPYANGNGLKERRRSRS
B8: RS31a (protein, UniProt Q9ZPX8 1-250)
chain: MRHVYVGNFDYDTRHSDLERLFSKFGRVKRVDMKSGYAFVYFEDERDAEDAIRRTDNTTFGYGRRKLSVEWAKDFQGERGKPRDGKAVSNQRPTKTLFVINFDPIRTRERDMERHFEPYGKVLNVRMRRNFAFVQFATQEDATKALDSTHNSKLLDKVVSVEYALREAGEREDRYAGSRRRRSPSPVYRRRPSPDYTRRRSPEYDRYKGPAPYERRKSPDYGRRSSDYGRARARSPGYDRSRSPIQRARG
B9: RSZ21 (protein, UniProt O81127 1-187)
chain: MTRVYVGNLDPRVTERELEDEFKAFGVLRNVWVARRPPGYAFLEFDDERDALDAISALDRKNGWRVELSHKDKGGRGGGGGRRGGIEDSKCYECGELGHFARECRRGRGSVRRRSPSPRRRRSPDYGYARRSISPRGRRSPPRRRSVTPPRRGRSYSRSPPYRGSRRDSPRRRDSPYGRRSPYANGV
B10: SC35 (protein, UniProt Q9FMG4 1-303)
chain: MSHFGRSGPPDISDTYSLLVLNITFRTTADDLYPLFAKYGKVVDVFIPRDRRTGDSRGFAFVRYKYKDEAHKAVERLDGRVVDGREITVQFAKYGPNAEKISKGRVVEPPPKSRRSRSRSPRRSRSPRRSRSPPRRRSPRRSRSPRRRSRDDYREKDYRKRSRSRSYDRRERHEEKDRDHRRRTRSRSASPDEKRRVRGRYDNESRSHSRSLSASPARRSPRSSSPQKTSPAREVSPDKRSNERSPSPRRSLSPRSPALQKASPSKEMSPERRSNERSPSPGSPAPLRKVDAASRSQSPYAAE
B11: RS41 (protein, UniProt P92966 1-356)
chain: MKPVFCGNFEYDARESDLERLFRKYGKVERVDMKAGFAFVYMEDERDAEDAIRALDRFEYGRTGRRLRVEWTKNDRGGAGRSGGSRRSSSGLRPSKTLFVINFDAQNTRTRDLERHFEPYGKIVNVRIRRNFAFIQYEAQEDATRALDATNSSKLMDKVISVEYAVKDDDSRGNGYSPERRRDRSPDRRRRSPSPYRRERGSPDYGRGASPVAHKRERTSPDYGRGRRSPSPYKRARLSPDYKRDDRRRERVASPENGAVRNRSPRKGRGESRSPPPYEKRRESRSPPPYEKRRESRSPPPYEKRRERSRSRSKSSPENGQVESPGQIMEVEAGRGYDGADSPIRESPSRSPPAEE
B12: SCL28 (protein, UniProt Q1PDV2 1-236)
chain: MARARSRSRSYSPRPRDRSPPRERKGYDDNRLRERPSSRDHESSGPSGLLIRNLPLDARPNDLRDSFERFGPLKDIYLPRNYYTGEPRGFGFVKYRYAEDAAEAMKRMNHKVIGGREIAIVFAEENRKTPQEMRTTNGTSGRHGDYKRTSHRSPRRRYRSHSRSRSPPRRESRHSKVREDDLYSPRRRSRSISRSPLPRNEREYKSRNCRSPREERVLTPIRSRCLSRSRSRSLSR
B13: SCL30 (protein, UniProt Q8L3X8 1-262)
chain: MRRYSPPYYSPPRRGYGGRGRSPPPPPPRRGYGGGGGGGGRRGSSHGSLLVRNIPLDCRPEELREPFERFGPVRDVYIPRDYYSGQPRGFAFVEFVDAYDAGEAQRSMNRRSFAGREITVVVASESRKRPEEMRVKTRTRSREPSGSRDRSHGRSRSRSISRSRSPRRPSDSRSRYRSRSYSPAPRRRGGPPRGEEDENYSRRSYSPGYEGAAAAAPDRDRNGDNEIREKPGYEAEDRRRGGRAVSRSPSGSRSRSVEVSPR

biological target: T1, serine/arginine-rich 45 (SR45), SR45.1 isoform (Arabidopsis thaliana); experiment: two-hybrid

binding, binds:
B1, B2, B3, B4, B5, B6, B7, B8, B9, B10, B11, B12, B13
